Data taken from PMC10470313, “Developing a peptide to disrupt cohesin head domain interactions” (iScience, 2023).
Results are given in words; binding and its absence hold for the method and conditions named. Some binding calls cover weakened binding; strength is not graded here. Tags and fused reporters may be left off the sequences shown.

Target: T1, Smc3-GFP (S. cerevisiae) (UniProt P47037)
T1 sequence: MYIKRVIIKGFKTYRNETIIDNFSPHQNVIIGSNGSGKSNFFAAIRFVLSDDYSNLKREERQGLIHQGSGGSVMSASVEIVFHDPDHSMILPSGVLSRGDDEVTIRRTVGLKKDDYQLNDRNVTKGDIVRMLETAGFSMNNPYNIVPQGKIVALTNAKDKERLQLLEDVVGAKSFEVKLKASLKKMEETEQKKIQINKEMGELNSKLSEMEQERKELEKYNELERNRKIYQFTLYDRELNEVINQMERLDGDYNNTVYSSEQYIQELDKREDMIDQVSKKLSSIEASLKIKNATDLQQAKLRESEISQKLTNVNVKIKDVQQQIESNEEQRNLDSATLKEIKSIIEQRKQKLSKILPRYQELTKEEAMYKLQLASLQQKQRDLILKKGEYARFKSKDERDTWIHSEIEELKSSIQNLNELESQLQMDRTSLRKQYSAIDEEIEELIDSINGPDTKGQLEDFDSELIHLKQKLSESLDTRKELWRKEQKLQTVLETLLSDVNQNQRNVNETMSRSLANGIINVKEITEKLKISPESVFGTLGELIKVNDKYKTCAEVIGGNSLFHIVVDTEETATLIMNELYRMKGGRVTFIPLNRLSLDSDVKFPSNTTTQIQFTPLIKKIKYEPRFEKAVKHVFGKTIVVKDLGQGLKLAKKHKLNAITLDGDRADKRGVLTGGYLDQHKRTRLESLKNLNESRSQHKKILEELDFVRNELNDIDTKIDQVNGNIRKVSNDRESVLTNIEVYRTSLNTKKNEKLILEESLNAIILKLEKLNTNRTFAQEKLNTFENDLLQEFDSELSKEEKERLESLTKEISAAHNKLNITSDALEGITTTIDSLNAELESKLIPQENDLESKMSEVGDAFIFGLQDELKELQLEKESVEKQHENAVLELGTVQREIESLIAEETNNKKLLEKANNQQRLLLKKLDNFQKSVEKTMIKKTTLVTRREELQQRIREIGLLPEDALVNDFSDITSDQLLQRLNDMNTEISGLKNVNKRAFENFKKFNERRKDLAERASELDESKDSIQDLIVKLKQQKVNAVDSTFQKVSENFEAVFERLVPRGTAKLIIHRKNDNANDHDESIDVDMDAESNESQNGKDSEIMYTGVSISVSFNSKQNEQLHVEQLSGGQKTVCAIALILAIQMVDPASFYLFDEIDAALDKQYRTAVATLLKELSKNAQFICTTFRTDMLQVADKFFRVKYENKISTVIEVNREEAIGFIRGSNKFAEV
Experiment: MST; binding mode (no constants); yeast protein extract with Smc3-GFP (20 nM total cellular protein) mixed with CIP3-TAT (5 uM in the methods, 10 uM in the results); MST buffer with 0.05% Tween-20; Monolith NT.115; only the binder purified

KRFKDMEYLSGGEKTGGYGRKKRRQRRR [CIP3-TAT] was tested. Which binding did it give?
Its binding is “binds”.
